# Reference: the supplement of paper PMC12067093, “Discovery and optimisation of a covalent ligand for TRIM25 and its application to targeted protein ubiquitination” (Chemical Science, 2025)
# Protein sequences, listed by entry. Tags and fused reporters are not part of them. Lines headed by an entry give the natural chain unless they say otherwise; changes in a name come on top.
# UniProt P41223: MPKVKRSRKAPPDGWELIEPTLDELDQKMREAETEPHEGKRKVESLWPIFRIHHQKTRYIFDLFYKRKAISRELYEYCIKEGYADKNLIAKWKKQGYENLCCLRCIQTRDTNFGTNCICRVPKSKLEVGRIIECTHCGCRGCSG
# UniProt P27708: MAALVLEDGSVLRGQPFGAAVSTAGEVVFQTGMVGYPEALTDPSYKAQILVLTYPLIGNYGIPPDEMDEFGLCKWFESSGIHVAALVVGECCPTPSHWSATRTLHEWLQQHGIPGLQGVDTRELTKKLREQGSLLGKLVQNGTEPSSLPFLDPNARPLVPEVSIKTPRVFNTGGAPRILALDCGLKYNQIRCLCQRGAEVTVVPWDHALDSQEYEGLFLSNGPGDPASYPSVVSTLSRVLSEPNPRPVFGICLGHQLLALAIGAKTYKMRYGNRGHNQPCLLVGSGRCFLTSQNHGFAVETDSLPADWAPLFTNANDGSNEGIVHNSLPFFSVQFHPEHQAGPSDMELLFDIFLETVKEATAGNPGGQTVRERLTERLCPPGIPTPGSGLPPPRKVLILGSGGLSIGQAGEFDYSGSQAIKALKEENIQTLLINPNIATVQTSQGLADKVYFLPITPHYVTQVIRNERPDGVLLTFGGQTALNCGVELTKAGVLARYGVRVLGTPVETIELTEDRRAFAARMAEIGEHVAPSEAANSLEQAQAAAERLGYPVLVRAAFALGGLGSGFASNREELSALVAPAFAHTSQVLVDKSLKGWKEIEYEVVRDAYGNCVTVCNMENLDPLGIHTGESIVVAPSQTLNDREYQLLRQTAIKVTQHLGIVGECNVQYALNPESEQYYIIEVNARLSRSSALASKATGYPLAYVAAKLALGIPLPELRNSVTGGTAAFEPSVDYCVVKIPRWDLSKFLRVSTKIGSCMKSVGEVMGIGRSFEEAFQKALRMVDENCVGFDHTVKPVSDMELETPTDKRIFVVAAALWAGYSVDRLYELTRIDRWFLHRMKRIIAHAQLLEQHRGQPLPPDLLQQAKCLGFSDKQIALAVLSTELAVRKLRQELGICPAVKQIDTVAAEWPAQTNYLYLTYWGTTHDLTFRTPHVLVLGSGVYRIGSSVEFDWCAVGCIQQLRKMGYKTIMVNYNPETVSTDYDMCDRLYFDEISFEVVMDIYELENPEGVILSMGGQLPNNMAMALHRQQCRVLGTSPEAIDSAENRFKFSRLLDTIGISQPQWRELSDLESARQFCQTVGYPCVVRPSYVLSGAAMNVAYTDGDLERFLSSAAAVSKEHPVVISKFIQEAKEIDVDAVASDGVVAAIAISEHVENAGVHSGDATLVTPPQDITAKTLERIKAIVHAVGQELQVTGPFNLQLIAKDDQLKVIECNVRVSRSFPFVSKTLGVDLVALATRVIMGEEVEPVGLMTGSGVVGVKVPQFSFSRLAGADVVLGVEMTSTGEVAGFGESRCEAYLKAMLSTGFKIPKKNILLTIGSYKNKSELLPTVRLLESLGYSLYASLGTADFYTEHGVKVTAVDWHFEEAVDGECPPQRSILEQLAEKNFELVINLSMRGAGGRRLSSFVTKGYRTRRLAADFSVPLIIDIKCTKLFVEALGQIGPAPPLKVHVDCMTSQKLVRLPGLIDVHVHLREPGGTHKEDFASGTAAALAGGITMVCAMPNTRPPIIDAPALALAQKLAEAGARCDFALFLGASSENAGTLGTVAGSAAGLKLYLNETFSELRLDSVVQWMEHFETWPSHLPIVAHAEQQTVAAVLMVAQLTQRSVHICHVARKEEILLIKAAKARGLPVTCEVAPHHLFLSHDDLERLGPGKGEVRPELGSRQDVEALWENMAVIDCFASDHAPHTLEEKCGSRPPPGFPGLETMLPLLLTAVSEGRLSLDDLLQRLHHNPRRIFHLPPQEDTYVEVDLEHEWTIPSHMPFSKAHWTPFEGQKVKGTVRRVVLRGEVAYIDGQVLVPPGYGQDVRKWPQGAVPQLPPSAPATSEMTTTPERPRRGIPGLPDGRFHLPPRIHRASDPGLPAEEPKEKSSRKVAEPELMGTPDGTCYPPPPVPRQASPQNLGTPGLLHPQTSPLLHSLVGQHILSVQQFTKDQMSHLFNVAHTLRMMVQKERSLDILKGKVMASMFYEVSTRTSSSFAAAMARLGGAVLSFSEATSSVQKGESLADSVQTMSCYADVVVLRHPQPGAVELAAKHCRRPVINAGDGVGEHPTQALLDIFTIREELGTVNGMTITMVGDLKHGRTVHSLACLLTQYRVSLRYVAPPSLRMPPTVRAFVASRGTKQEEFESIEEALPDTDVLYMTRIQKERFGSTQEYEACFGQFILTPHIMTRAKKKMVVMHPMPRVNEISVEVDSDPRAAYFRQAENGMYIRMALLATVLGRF
# UniProt F5H4A9: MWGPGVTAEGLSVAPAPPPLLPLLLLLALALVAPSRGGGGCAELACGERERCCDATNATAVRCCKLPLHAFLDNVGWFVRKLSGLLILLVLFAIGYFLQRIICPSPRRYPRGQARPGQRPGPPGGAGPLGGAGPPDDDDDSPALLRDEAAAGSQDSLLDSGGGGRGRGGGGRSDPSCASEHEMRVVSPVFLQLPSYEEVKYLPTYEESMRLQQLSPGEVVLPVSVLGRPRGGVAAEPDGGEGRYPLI
# UniProt Q9H0E9, whole entry, looked up: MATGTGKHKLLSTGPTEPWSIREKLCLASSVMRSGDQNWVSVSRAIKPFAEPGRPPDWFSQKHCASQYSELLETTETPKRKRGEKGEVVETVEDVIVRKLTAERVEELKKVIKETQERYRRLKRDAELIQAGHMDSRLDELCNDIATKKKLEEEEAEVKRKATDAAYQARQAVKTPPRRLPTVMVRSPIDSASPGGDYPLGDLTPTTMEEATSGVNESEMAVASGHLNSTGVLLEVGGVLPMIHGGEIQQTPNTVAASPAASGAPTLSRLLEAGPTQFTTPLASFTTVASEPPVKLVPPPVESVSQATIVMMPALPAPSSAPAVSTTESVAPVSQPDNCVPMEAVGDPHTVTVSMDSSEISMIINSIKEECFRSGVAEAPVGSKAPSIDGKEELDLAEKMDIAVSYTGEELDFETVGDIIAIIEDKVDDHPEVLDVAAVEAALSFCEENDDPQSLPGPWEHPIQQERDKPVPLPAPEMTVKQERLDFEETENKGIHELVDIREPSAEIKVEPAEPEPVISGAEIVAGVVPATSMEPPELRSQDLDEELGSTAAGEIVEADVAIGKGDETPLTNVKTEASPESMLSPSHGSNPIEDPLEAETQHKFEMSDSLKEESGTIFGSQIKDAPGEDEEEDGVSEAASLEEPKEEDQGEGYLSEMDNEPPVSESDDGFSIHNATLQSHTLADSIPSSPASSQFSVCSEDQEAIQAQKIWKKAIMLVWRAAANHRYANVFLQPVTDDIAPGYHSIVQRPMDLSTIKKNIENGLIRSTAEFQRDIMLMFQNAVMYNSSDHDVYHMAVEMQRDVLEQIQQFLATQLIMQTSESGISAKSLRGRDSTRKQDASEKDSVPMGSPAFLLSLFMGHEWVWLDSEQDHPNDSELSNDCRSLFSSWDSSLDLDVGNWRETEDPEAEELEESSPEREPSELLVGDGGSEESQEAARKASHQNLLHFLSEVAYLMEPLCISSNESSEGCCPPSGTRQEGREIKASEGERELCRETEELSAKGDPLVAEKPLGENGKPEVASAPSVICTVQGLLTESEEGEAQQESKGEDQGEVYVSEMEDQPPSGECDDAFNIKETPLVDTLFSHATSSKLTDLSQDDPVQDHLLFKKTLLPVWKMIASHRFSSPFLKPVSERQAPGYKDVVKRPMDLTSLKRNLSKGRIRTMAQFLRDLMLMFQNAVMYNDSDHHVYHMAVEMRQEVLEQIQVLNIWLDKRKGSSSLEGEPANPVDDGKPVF
# UniProt Q9HB71, whole entry, looked up: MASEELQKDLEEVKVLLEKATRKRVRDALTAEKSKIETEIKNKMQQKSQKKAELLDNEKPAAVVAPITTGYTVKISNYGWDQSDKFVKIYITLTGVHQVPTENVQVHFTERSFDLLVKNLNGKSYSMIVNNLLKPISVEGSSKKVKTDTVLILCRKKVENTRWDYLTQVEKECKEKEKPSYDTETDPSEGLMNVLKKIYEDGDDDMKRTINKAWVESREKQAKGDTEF
# UniProt Q06187: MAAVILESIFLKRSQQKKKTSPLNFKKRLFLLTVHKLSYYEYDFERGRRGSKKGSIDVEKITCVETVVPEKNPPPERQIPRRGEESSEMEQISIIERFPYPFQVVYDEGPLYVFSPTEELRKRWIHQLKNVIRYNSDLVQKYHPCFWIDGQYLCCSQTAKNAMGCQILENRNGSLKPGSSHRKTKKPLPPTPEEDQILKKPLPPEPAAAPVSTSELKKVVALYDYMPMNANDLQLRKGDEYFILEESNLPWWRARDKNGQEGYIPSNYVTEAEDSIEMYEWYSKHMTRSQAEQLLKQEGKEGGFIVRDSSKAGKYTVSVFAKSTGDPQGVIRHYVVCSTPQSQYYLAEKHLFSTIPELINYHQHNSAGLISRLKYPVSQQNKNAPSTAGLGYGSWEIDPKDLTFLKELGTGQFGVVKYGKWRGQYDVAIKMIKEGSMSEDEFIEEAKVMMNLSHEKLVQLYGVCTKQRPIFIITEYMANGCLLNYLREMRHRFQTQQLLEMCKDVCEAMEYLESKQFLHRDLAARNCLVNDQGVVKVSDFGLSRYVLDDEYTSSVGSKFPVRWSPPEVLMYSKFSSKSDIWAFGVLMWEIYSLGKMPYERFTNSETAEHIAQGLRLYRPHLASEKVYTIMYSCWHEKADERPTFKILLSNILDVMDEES
# UniProt Q6P1X6: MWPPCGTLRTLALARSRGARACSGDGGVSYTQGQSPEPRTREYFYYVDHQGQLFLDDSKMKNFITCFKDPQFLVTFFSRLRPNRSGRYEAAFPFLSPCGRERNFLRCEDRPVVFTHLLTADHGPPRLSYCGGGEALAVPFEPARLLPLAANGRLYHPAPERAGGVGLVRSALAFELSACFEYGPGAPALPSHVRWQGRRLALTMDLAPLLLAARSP
# UniProt Q86VP6: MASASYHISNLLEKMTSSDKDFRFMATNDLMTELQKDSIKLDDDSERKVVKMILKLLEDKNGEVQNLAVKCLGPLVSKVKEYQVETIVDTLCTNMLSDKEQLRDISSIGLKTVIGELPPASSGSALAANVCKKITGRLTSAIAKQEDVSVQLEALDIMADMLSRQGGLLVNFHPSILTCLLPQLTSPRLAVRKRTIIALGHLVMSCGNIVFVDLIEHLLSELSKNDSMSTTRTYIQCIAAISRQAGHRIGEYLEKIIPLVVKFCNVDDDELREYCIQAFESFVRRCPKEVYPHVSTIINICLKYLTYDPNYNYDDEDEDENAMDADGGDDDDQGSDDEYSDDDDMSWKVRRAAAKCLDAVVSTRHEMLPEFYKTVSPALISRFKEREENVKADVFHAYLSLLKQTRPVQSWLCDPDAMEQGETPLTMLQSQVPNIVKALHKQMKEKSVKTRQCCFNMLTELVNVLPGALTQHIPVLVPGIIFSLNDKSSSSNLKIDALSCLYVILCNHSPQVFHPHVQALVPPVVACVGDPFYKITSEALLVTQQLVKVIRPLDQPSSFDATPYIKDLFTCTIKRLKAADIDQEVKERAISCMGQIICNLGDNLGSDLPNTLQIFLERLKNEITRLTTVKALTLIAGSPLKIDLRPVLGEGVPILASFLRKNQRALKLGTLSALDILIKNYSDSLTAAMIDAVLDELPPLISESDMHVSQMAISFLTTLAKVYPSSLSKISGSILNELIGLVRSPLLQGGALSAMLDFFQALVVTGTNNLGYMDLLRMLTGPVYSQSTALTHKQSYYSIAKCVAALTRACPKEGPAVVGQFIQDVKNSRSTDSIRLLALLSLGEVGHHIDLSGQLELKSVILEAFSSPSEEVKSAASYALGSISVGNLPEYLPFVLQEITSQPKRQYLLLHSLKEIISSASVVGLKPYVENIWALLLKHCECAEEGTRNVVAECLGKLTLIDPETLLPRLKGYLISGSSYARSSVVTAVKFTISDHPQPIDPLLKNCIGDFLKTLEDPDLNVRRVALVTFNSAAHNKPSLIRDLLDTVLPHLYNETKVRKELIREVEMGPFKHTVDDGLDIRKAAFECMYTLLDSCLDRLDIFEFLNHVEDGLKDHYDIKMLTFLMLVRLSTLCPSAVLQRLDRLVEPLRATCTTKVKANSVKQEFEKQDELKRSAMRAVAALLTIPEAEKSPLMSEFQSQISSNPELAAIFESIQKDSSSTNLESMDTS
# UniProt Q14012: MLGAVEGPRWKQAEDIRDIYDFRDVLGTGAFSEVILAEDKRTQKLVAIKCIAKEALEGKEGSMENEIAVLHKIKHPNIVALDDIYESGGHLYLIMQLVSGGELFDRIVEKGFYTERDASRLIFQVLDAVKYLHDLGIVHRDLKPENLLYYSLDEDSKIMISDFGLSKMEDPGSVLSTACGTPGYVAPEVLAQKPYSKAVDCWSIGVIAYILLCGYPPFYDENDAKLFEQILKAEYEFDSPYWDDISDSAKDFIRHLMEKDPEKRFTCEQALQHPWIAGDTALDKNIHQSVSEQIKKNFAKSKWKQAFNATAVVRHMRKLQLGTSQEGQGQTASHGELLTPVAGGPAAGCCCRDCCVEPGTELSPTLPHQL
# Some of the results follow.
# Compound: Cc1cc(ccc1-c1ccccc1)C(=O)N1CCCN(CC1)C(=O)CCl [compound 10]
# Experiment: probe-labelled cysteine peptide fold change vs DMSO (competition) (log2 fold change); higher = less target engagement (more negative = stronger competition)
# Details: THP-1, incubation time: 4 h
# 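Further: competitive profiling in live THP-1 cells: cysteine peptides tagged with an iodoacetamide desthiobiotin (IA-DTB) probe, intensity after compound treatment relative to DMSO-treated cells.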
Target,probe-labelled cysteine peptide fold change (10 µM),probe-labelled cysteine peptide fold change (50 µM)
CABIN1_Q9Y6J0_717_AVVHLLRPTLCTSGFDR (UniProt Q9Y6J0),-0.149,-0.078
BUD31_P41223_101_KQGYENLCCLR (UniProt P41223),-0.0226,-0.397
C19orf54_Q5BKX5_186_LAQEVLGCQAK (UniProt Q5BKX5),-0.105,-0.352
CAD_P27708_897_QELGICPAVK (UniProt P27708),0.0277,-0.0532
CAMK2D_Q13557_116_EYYSEADASHCIQQILESVNHCHLNGIVHR (UniProt Q13557),0.225,-0.0231
C5orf51_A6NDU8_120_HCNLLGDELLECLSWR (UniProt A6NDU8),-0.203,-0.282
CAP1_Q01518_416_TDGCHAYLSK (UniProt Q01518),-0.111,0.0223
C3orf80_F5H4A9_177_SDPSCASEHEMR (UniProt F5H4A9),-0.0873,0.137
CAND2_O75155_945_CEGAEEGTR (UniProt O75155),-0.0262,0.0461
BTBD10_Q9BSF8_86_TESQLTPCIR (UniProt Q9BSF8),-0.608,-1.07
BRD8_Q9H0E9-2_941_CAIEADMK (UniProt Q9H0E9),-0.376,-0.241
C17orf75_Q9HAS0_265_FLSVASLQGLIHEGTMTSLCMAMTEEQHK (UniProt Q9HAS0),0.0249,-0.756
CACYBP_Q9HB71_154_TDTVLILCR (UniProt Q9HB71),-0.0272,0.0646
CAD_P27708_280_GHNQPCLLVGSGR (UniProt P27708),0.147,0.0995
BTK_Q06187_502_FQTQQLLEMCK (UniProt Q06187),-0.166,-0.0477
BST1_Q10588_259_DMGFQYSCINDYRPVK (UniProt Q10588),-0.226,-0.0265
BSG_P35613_203_VDSDDQWGEYSCVFLPEPMGTANIQLHGPPR (UniProt P35613),0.157,0.225
BTK_Q06187_63_ITCVETVVPEK (UniProt Q06187),-0.182,0.117
CAD_P27708_1455_VHVDCMTSQK (UniProt P27708),0.0565,-0.0422
C6orf89_Q6UWU4_28_QTGHQCGMSEK (UniProt Q6UWU4),-0.406,-0.807

Target,probe-labelled cysteine peptide fold change (10 µM),probe-labelled cysteine peptide fold change (50 µM)
BYSL_Q13895_381_ELPVLWHQCLLTLVQR (UniProt Q13895),-0.00198,0.153
BRD7_Q9NPI1_107_DLQCHAPVR (UniProt Q9NPI1),-0.177,0.0455
CAMK2D_Q13557_273_HPWICQR (UniProt Q13557),-0.186,-0.182
CAMKK2_Q96RR4_397_IMCLHSK (UniProt Q96RR4),-0.139,-0.774
CALR_P27797_163_CKDDEFTHLYTLIVRPDNTYEVK (UniProt P27797),0.029,0.198
BRCA1_P38398_1697_TDAEFVCER (UniProt P38398),0.328,0.623
CAMSAP1_Q5T5Y3_47_IAANLQWICAK (UniProt Q5T5Y3),0.165,0.000722
CAMK2D_Q13557_428_SNKPIHTIILNPHVHLVGDDAACIAYIR (UniProt Q13557),0.115,0.0887
BUD31_P41223_137+139_IIECTHCGCR (UniProt P41223),0.131,-0.351
CAD_P27708_252_VLSEPNPRPVFGICLGHQLLALAIGAK (UniProt P27708),-0.467,-0.598
C8orf82_Q6P1X6_66_NFITCFK (UniProt Q6P1X6),-0.179,0.549
CABLES2_Q9BTV7_181_IVLICAK (UniProt Q9BTV7),-0.13,0.031
BTK_Q06187_337_HYVVCSTPQSQYYLAEK (UniProt Q06187),0.0975,0.0391
C2CD5_Q86YS7_449_FLQDGTVEGCLEQR (UniProt Q86YS7),-0.18,-0.289
CAMKK1_Q8N5S9_351_CPFIDDFILALHR (UniProt Q8N5S9),0.369,-0.0797
C7_P10643_743_RILPLTVCK (UniProt P10643),-0.416,-0.508
CAND1_Q86VP6_71_CLGPLVSK (UniProt Q86VP6),0.0934,0.125
CAMK1_Q14012_355_DCCVEPGTELSPTLPHQL (UniProt Q14012),0.0801,0.281
CAND1_Q86VP6_356_CLDAVVSTR (UniProt Q86VP6),0.0918,0.163
BUB3_O43684_270_RLCQFHR (UniProt O43684),0.0658,0.317

# Single records (already shown):
# BSG_P35613_203_VDSDDQWGEYSCVFLPEPMGTANIQLHGPPR (UniProt P35613) is entered as probe-labelled cysteine peptide fold change (10 µM): 0.157; probe-labelled cysteine peptide fold change (50 µM): 0.225
# CACYBP_Q9HB71_154_TDTVLILCR (UniProt Q9HB71) is entered as probe-labelled cysteine peptide fold change (10 µM): -0.0272; probe-labelled cysteine peptide fold change (50 µM): 0.0646
# C8orf82_Q6P1X6_66_NFITCFK (UniProt Q6P1X6) is entered as probe-labelled cysteine peptide fold change (10 µM): -0.179; probe-labelled cysteine peptide fold change (50 µM): 0.549
